Laboratory results taken from PMC7819943, “Rice protein-binding microarrays: a tool to detect cis-acting elements near promoter regions in rice”.
The other results are listed elsewhere or left out.

Molecular target: T1, OsSMF1 (Oryza sativa, UniProt Q6ZLB0 1-436)
T1 sequence: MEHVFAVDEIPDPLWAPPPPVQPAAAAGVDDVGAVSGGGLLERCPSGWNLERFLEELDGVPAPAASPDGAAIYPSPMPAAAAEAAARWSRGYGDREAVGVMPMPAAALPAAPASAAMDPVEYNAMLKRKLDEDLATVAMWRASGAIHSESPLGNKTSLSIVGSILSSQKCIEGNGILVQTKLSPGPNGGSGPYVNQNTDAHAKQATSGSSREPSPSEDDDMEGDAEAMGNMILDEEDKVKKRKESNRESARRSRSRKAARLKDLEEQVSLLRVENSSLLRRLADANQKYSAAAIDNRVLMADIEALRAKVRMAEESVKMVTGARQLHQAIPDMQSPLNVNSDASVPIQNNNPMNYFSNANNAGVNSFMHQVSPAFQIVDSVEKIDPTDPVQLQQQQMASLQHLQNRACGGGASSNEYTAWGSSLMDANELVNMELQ
Experiment: protein-binding microarray (RPBM); PBS, 2% BSA, 51.3 ng/ul salmon testes DNA, 50 uM zinc acetate, 200 nM TF, 25 C, 1 h; high values mean tight binding
Conditions: protein: recombinant; tags: N-terminal polyhistidine and DsRed monomer fusion (pET32a); chain copies: 2; label: CyDye5-dUTP incorporated in the synthesized complementary strand; 3' TTTTT single-stranded linker to array surface; dsDNA, one strand shown
Summary of the method: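 The binding signal is fluorescence intensity per feature, in arbitrary units, read on an Axon 4000B scanner. Polyhistidine- and DsRed-tagged transcription factors (N-terminal fusions) from E. coli BL21-CodonPlus were purified on Ni–NTA and applied at 200 nM for 1 h at 25 °C to a double-stranded, BSA-blocked custom Agilent array in buffer with 50 µM zinc acetate.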

| Sequence | binding signal |
| --- | --- |
| CCAACTCCTACTTCGTTGCGTTCGTTCTAAACCCGAGCCCCGGAGTCACCTAGTGCAG | 28200 fluorescence intensity (a.u.) |
| TTGCTGCTGGCCATTCATACATACAGCCACGACTGCAAATCGGAGTCACCTAGTGCAG | 3410 fluorescence intensity (a.u.) |
| TATACTTCAAAGTAATTTTGGCACACGAACTAAACACAGCCGGAGTCACCTAGTGCAG | 3510 fluorescence intensity (a.u.) |
| GGCATTTAGAATAATACGTCATACGTTGGTTAAGCTTTTGCGGAGTCACCTAGTGCAG | 6620 fluorescence intensity (a.u.) |
| CGTGTCCCCAAGAAACGAGCCACGTGGCGCGCTACCGCACCGGAGTCACCTAGTGCAG | 28100 fluorescence intensity (a.u.) |
| GTCTATCCTTTTCACGCACAATAATTTGTTATAGTTTAGACGGAGTCACCTAGTGCAG | 24700 fluorescence intensity (a.u.) |
| GTAGATATGGGATATCCATAATCTCCACACGACCCAACCACGGAGTCACCTAGTGCAG | 3210 fluorescence intensity (a.u.) |
| CTTCTAGTTTCCTCTTCCTCTCGCATCCTAGCGGCAGCGGCGGAGTCACCTAGTGCAG | 29000 fluorescence intensity (a.u.) |
| CCGCTCGTCGATTAGCCGGCCACGCCTCCCGCTCGTGAAGCGGAGTCACCTAGTGCAG | 3680 fluorescence intensity (a.u.) |
| CACAAAATGTCTTTGATACCATGGATGACTGTGATATGATCGGAGTCACCTAGTGCAG | 4000 fluorescence intensity (a.u.) |
| CAATTCGTGTCACTGACACATTGGGCCCCATACCTCAACGCGGAGTCACCTAGTGCAG | 6580 fluorescence intensity (a.u.) |
| TCATCGCACGATACCGCGAGCCAGGCATGCAGTCAGCTAGCGGAGTCACCTAGTGCAG | 3240 fluorescence intensity (a.u.) |
| AGTAGAGCCAGTATAATGGGATTGTATCACGTCAGCAAAACGGAGTCACCTAGTGCAG | 5400 fluorescence intensity (a.u.) |
| TAGGATGACGTCCAATTCTTAATGTTCCGTGGGATGACCCCGGAGTCACCTAGTGCAG | 3690 fluorescence intensity (a.u.) |
| GATACCGGCCACGATGTCATTTTCACGTCATTCTCGTGCACGGAGTCACCTAGTGCAG | 7100 fluorescence intensity (a.u.) |
| TATAATATATATAATATCAGATGTGACATGCCAACGCCGCCGGAGTCACCTAGTGCAG | 4570 fluorescence intensity (a.u.) |
| ATCCGTCCTCCATTCTCAGGCCAGTTCTTGCAAGACTCTTCGGAGTCACCTAGTGCAG | 8840 fluorescence intensity (a.u.) |
| GCTCGCTCGCTCGCTGACGTGTACGCTTCGCGGCGGAGGCCGGAGTCACCTAGTGCAG | 15000 fluorescence intensity (a.u.) |
| CATATGTAACTTTTAACATATAAGGGCCCTCTTTAGATCCCGGAGTCACCTAGTGCAG | 6680 fluorescence intensity (a.u.) |
| TAAAGCCATGACCTGTTCATACTTCATACACATCAACGCGCGGAGTCACCTAGTGCAG | 3290 fluorescence intensity (a.u.) |
| CTCGTGCATCAGAAAATGGCGCACCGCCAGGCCCACCCAGCGGAGTCACCTAGTGCAG | 3320 fluorescence intensity (a.u.) |

| Sequence | binding signal |
| --- | --- |
| GAATCGCCCCTCCGCGGCACGAGTCCACGACGGCAAGAAACGGAGTCACCTAGTGCAG | 31700 fluorescence intensity (a.u.) |
| ATAGGACCTATGACTACAACTATCTCTCGGTTGTCACGAACGGAGTCACCTAGTGCAG | 3690 fluorescence intensity (a.u.) |
| ATATCCATGGACCGGATCGCTGACACGTGGCGTACCACGTCGGAGTCACCTAGTGCAG | 18100 fluorescence intensity (a.u.) |
| GTGTGACTCATGCTTTCTCCAGCCCAGCCCAGCCCAGCCCCGGAGTCACCTAGTGCAG | 8380 fluorescence intensity (a.u.) |
| TGTGATGTGGGCATGCGTGTGCGCACGTGTTCTATTGGTGCGGAGTCACCTAGTGCAG | 17600 fluorescence intensity (a.u.) |
| GCTCGCCGAGTCAGCGTTTGAGCTCGTTAGTCTTAACGATCGGAGTCACCTAGTGCAG | 5390 fluorescence intensity (a.u.) |
| ACTTCTACTCAATTACACCTCATCCTTGCATACAAACAAACGGAGTCACCTAGTGCAG | 3650 fluorescence intensity (a.u.) |
| TTCAAGAAACATTATGGTCAGTTGACACGGCTCTATCGCACGGAGTCACCTAGTGCAG | 3280 fluorescence intensity (a.u.) |
| ATTTCCTTTTGTTGCTGTGCCACGCCACCCAACCCAACCCCGGAGTCACCTAGTGCAG | 7360 fluorescence intensity (a.u.) |
| AGCTGACTCCCTCGATGGTGACAGGTCTGAAGAAGCTTGGCGGAGTCACCTAGTGCAG | 3250 fluorescence intensity (a.u.) |
| TATGCGCGCAGAGTTTGCAAGGCCAGGTCATCCATGCTCGCGGAGTCACCTAGTGCAG | 3810 fluorescence intensity (a.u.) |
| CGCTCCCATCGGCGCACGCGTCCACCCCGGCCGCTCTCCTCGGAGTCACCTAGTGCAG | 3450 fluorescence intensity (a.u.) |
| TCTCTCTCCCTCTTCTGGTTTGGTTTGTTGCTGGCCCTAGCGGAGTCACCTAGTGCAG | 27200 fluorescence intensity (a.u.) |
| CGCGCTCGCCCGTCGTCGCTCCGCTGCCACATGGGCCCGCCGGAGTCACCTAGTGCAG | 4050 fluorescence intensity (a.u.) |
| TGGTGCACCGATAGTCCGATCTTGATGACACATGTGCACGCGGAGTCACCTAGTGCAG | 4860 fluorescence intensity (a.u.) |
| GTCGTTGTCGTTGGATGTATCGCCACGCATTGACGCATCCCGGAGTCACCTAGTGCAG | 5430 fluorescence intensity (a.u.) |
| TCTCAGCCACATGGGCCACGGCAGGTGGGGCCCACCCGCACGGAGTCACCTAGTGCAG | 3260 fluorescence intensity (a.u.) |
| GTTGAGGAACCTTCGGTGAACTTATTCCCAAGGAAAAGCACGGAGTCACCTAGTGCAG | 23200 fluorescence intensity (a.u.) |
| CCTGATCGTACGGCTGATCTGGCACAGCATTACAAACTTGCGGAGTCACCTAGTGCAG | 3980 fluorescence intensity (a.u.) |
| CCCATCCACCCACACGTGTCACCCCTCTCCCCGCCTATATCGGAGTCACCTAGTGCAG | 13900 fluorescence intensity (a.u.) |
| TGCCCTCTGCATGTCACGTCGGATATACGGACACACATTTCGGAGTCACCTAGTGCAG | 3210 fluorescence intensity (a.u.) |

A run of entries from further up:

| Sequence | binding signal |
| --- | --- |
| CATATGTAACTTTTAACATATAAGGGCCCTCTTTAGATCCCGGAGTCACCTAGTGCAG | 6680 fluorescence intensity (a.u.) |
| TAAAGCCATGACCTGTTCATACTTCATACACATCAACGCGCGGAGTCACCTAGTGCAG | 3290 fluorescence intensity (a.u.) |
